Assay results: PubChem BioAssay AID493014 (National Center for Advancing Translational Sciences (NCATS), 2011)
Among all 340,000 compounds or so, about 170 (0.05%) were called active. The inconclusive results got no clear call from the source; some entries with a clear call stand among them for comparison. The call rests on the fitted dose curve; in most records, active means well fitted inhibition curve with a large enough effect in the signal ratio, with a control signal flat (not every such curve was filed as active); inconclusive means small, poorly fitted or top-dose-only effect, or effect the other way, or a change in a side signal; inactive means flat fitted curve, though single readings scatter; the % refers to the signal ratio. A potency beside an inconclusive call is a rough fit, not a confirmed value.

experiment: qHTS Assay to Find Inhibitors of Chronic Active B-Cell Receptor Signaling; conditions: ABC-DLBCL IkBa-CBG/CBR reporter, luminescence ratio (green luciferase fused to IkBa over red control in TMD8 lymphoma cells), 4 h; activity change, negative = inhibition: at 46.1 µM (top of the series);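 on activity change, negative = inhibition: plate controls were basal doxycycline-induced cells for no effect and cells given 10 µM MG132 for full effect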
How it was run: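 Compounds up to 46 uM were incubated four hours with TMD8 cells whose green CBG68 luciferase is fused to IkappaBalpha; red CBR luminescence normalised the signal, and concentration-effect curves were fitted to fusion, red and ratio data.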
Potency means the concentration at half of the fitted maximal effect.

SMILES	activity change, negative = inhibition	Potency
CC(NC(=O)CN(C)Cc1ccc(Br)cc1)c1ccccc1 (configuration not stated)	inconclusive: -2.76%	
CC(C)(C)OC(=O)NCCCCCNC(=O)c1[nH]cnc1C(=O)Nc1ccon1	inconclusive: 19.8%	
CCc1ccc(CCC(=O)Nc2ccccc2C(=O)O)o1		inconclusive: 11.2 µM [falling, partial curve]
CC(NC(=O)c1cccc(Cn2cc([N+](=O)[O-])cn2)c1)c1ccc(C(C)(C)C)cc1 (configuration not stated)	inconclusive: 15.2%	
COC(=O)C1=C(C)NC(=O)/C1=C\c1cc(C)n(-c2ccccc2)c1C	inactive	
O=[N+]([O-])c1cccc2ccc(/C=C/c3ccc(C(F)(F)F)cc3)nc12		inconclusive: 3.66 µM [rising, partial curve, poor fit]
Cc1cccc(C)c1NC(=S)N(Cc1ccccc1)Cc1cccnc1		inconclusive: 3.16 µM [falling, partial curve, poor fit]
COc1ccc(NC(=S)Nc2cccc(C)n2)cc1	inconclusive: 0.649%	
CC(=O)N1CCN(CCN=CC2=C(O)CC(c3ccco3)CC2=O)CC1 (configuration not stated)	inconclusive: -1.77%	
Cn1ccnc1SCC(=O)Nc1ccc2nc(SCC(=O)NC3CC3)sc2c1		inconclusive: 2.06 µM [falling, partial curve, poor fit]
CCOC(=O)C1=C(O)/C(=C/c2cc(OC)c(O)c(OC)c2)SC1=Nc1ccc(OC)cc1		inconclusive: 2.06 µM [falling, full curve]
O=C(Nc1ccccn1)c1ccc(S(=O)(=O)N2CCCCC2)cc1	inconclusive: 25.7%	
CN1CCN(S(=O)(=O)c2cccc(S(=O)(=O)c3cccc(S(=O)(=O)N4CCN(C)CC4)c3)c2)CC1	inconclusive: -0.065%	
CN1CCN(CCCNC(=O)c2cc3c(-c4ccc(Cl)cc4)nn(C)c3s2)CC1	inconclusive: -15.5%	
COc1ccc(C2C(C(=O)NCc3ccccn3)CCC(=O)N2c2cc(OC)c(OC)c(OC)c2)cc1 (configuration not stated)	inconclusive: 1.82%	
O=S(=O)(NCC1CCCO1)c1ccc(-c2ccc(Cl)cc2)cc1 (configuration not stated)	inactive	
CCOC(=O)Cc1csc(NC(=O)Nc2ccc(C)cc2)n1	inconclusive: -28.6%	
COc1ccc(/C=C/C(=O)c2ccccn2)cc1		inconclusive: 35.5 µM [falling, single point]
Cc1cccc(N2CCN(C(=O)c3ccc(CNc4c(N5CCC(C)CC5)c(=O)c4=O)cc3)CC2)c1C		inconclusive: 15.8 µM [falling, single point]
O=C(COc1ccccc1)N1CCc2ccccc2C1		inconclusive: 20.6 µM [falling, single point]
Cc1ccc(CNC(=O)COC(=O)c2ccc(Cl)c(N)c2)cc1		inconclusive: 25.9 µM [falling, single point]
Cc1cc(NC(=O)Nc2ccc(C)c(C)c2)no1	inactive	
COc1ccc(-c2cc(C(F)(F)F)nc(SCC(=O)NCc3ccco3)n2)cc1OC	inconclusive: -0.203%	
FC(F)(F)c1ccccc1NC(=S)Nn1cnnc1	inactive	
COc1cc(/C=N/O)cc(Br)c1OCc1ccc(Cl)cc1	inconclusive: 17.7%	
CC(C)Sc1nnc(Nc2ccccc2)s1	inconclusive: -13.1%	

Copied from above, 4 compounds:
SMILES	activity change, negative = inhibition	Potency
O=C(COc1ccccc1)N1CCc2ccccc2C1		inconclusive: 20.6 µM [falling, single point]
Cc1ccc(CNC(=O)COC(=O)c2ccc(Cl)c(N)c2)cc1		inconclusive: 25.9 µM [falling, single point]
Cc1cc(NC(=O)Nc2ccc(C)c(C)c2)no1	inactive	
COc1ccc(-c2cc(C(F)(F)F)nc(SCC(=O)NCc3ccco3)n2)cc1OC	inconclusive: -0.203%	

Next part

SMILES	activity change, negative = inhibition	Potency
Cc1ccccc1C(=O)Nc1nnc(SCC(=O)NC2CC2)s1	inconclusive: -16.6%	
Cc1cccc(CC2S/C(=N/N=C/c3ccco3)N(c3ccccc3)C2=O)c1 (configuration not stated)	inconclusive: 2.45%	
Cc1ccc(NC2=NC3(CCCC3)N=C(N)N2)c(C)c1	inactive	
O=S(=O)(c1ccc(Br)cc1)c1cnc2ccccc2n1	inconclusive: 0.768%	
Cc1ccc(S(=O)(=O)NCC(=O)NCC(=O)OCc2c(F)cccc2Cl)cc1	inconclusive: 24.6%	
CC1CCCN(C2(O)C(=O)Nc3ccc([N+](=O)[O-])cc32)C1 (configuration not stated)	inactive	
Cc1c(/C=N/NC(=O)c2ccc3c(c2)OCO3)cnn1C		inconclusive: 12.6 µM [falling, partial curve]
O=C(c1cc(-c2ccc(Cl)c(Cl)c2)on1)N1CCCCCC1	inconclusive: 7.07%	
CCn1c(SCC(=O)N(C)Cc2ccc(OC)c(F)c2)nc2cc(S(N)(=O)=O)ccc21	inactive	
CCCNC(=S)Nc1ccc(CC(=O)OC)cc1	inconclusive: 3.46%	
Cc1cccc(CNCc2ccccc2)c1	inactive	
COC(=O)Nc1ccc2c(c1)N(C(=O)CCCl)c1ccccc1S2	inconclusive: -15.8%	
CCN(CC)CCN(C(=O)c1ccc(N2C(=O)CCC2=O)cc1)c1nc2cc3c(cc2s1)OCCO3		inconclusive: 12.6 µM [falling, partial curve, poor fit]
O=C(NC(NC(=S)Nc1ccccc1O)C(Cl)(Cl)Cl)c1ccco1 (configuration not stated)		inconclusive: 29.1 µM [falling, single point]
Cc1cc(C)c2nc(SCC(=O)NCCC3=CCCCC3)cc(C)c2c1	inactive	
COc1ccc(N2C(=O)CC(c3ccc([N+](=O)[O-])cc3)C2=O)cc1 (configuration not stated)	inconclusive: 0.787%	
O=C(Nc1ccc(Cl)cc1)Nc1ccccc1CC[N+](=O)[O-]		inconclusive: 35.5 µM [falling, single point]
CCCCc1cc(=O)oc2cc(O)cc(O)c12	inconclusive: 11.8%	
Cc1ccc(-c2noc(CCC(=O)NC3CCN(Cc4ccccc4)CC3)n2)cc1	inactive	
Cc1ccc2nc(N3C(=O)C(O)=C(C(=O)c4ccco4)C3c3ccc(O)cc3)sc2c1 (configuration not stated)	inconclusive: 234%	
COc1ccc(OC)c(NC(=O)c2cc3n(n2)C(C(F)(F)F)CC(c2ccc4c(c2)OCO4)N3)c1 (configuration not stated)	inconclusive: -1.9%	
Cc1nnc(N(Cc2ccco2)C(=O)c2cccc(C#N)c2)s1	inconclusive: -1.91%	
S=c1[nH]nc(COc2ccc(Cl)cc2)n1Cc1ccco1	inactive	
Cc1ccccc1-c1nc(CS(=O)(=O)CC(=O)NCc2ccco2)c(C)o1	inconclusive: -18.2%	
CCC(CC)C(=O)Nc1cccc(-c2cn3cccnc3n2)c1	inactive	
Cc1cc(C)nc(Sc2ccc([N+](=O)[O-])cc2[N+](=O)[O-])n1		inconclusive: 32.6 µM [falling, partial curve, poor fit]
